Measurements from paper PMC7819943, “Rice protein-binding microarrays: a tool to detect cis-acting elements near promoter regions in rice”.
The list shows a part of the results.

The sequences below were run against T1, OsSMF1 (Oryza sativa, UniProt Q6ZLB0 1-436) (assay: protein-binding microarray (RPBM); PBS, 2% BSA, 51.3 ng/ul salmon testes DNA, 50 uM zinc acetate, 200 nM TF, 25 C, 1 h; high values mean tight binding). Settings: protein: recombinant; tags: N-terminal polyhistidine and DsRed monomer fusion (pET32a); chain copies: 2; label: CyDye5-dUTP incorporated in the synthesized complementary strand; 3' TTTTT single-stranded linker to array surface; dsDNA, one strand shown.
T1 sequence: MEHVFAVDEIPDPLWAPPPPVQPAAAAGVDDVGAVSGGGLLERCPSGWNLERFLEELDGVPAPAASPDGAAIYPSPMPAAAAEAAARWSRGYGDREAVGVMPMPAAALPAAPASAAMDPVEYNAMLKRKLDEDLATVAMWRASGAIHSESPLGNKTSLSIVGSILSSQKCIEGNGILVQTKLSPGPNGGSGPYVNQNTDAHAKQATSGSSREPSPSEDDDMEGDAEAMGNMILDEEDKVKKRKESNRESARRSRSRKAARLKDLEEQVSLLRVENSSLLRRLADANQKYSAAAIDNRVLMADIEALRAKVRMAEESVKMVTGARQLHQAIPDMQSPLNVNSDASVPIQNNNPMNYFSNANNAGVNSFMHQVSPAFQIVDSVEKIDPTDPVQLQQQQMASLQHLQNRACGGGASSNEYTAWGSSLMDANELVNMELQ
Method in brief: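 Binding signal is reported as fluorescence intensity per feature (arbitrary units) from an Axon 4000B scanner. Incubation used 200 nM of each Ni–NTA-purified, N-terminally polyhistidine- and DsRed-fused transcription factor from E. coli BL21-CodonPlus on a double-stranded custom Agilent array for 1 h at 25 °C, with 50 µM zinc acetate in the buffer, followed by washing.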

| Sequence | binding signal |
| --- | --- |
| TCTGTTAGTGTCATACTGTCATCGACATATAATATTCCCTCGGAGTCACCTAGTGCAG | 42500 fluorescence intensity (a.u.) |
| TACAGGCGGATTACGTAATTTGTTTTGTTATTAGACTACGCGGAGTCACCTAGTGCAG | 3260 fluorescence intensity (a.u.) |
| ACCAGTGTTGAGCTTCGCTCCTCATCCAGGTCACGCTCATCGGAGTCACCTAGTGCAG | 4820 fluorescence intensity (a.u.) |
| AAACGAATATTATCTTCTCGTAGCCACGTGCATTCTGTAGCGGAGTCACCTAGTGCAG | 5270 fluorescence intensity (a.u.) |
| CGCGGCCCAACACCTGCCACGCCGAACTCAACCACCCGAACGGAGTCACCTAGTGCAG | 3920 fluorescence intensity (a.u.) |
| CTCGCATCCGGTGTATCACCACTCCACCATACATCCTCCCCGGAGTCACCTAGTGCAG | 32300 fluorescence intensity (a.u.) |
| TCATGTTCATTCTGATCGGTGCATGCGTGTTCAGTTGGATCGGAGTCACCTAGTGCAG | 4930 fluorescence intensity (a.u.) |
| TTCCAACTTCCTCCGCGTCACAACTCACAACAGAAGCGGACGGAGTCACCTAGTGCAG | 3850 fluorescence intensity (a.u.) |
| ACAAGCATTATAACAAACATCTCACTTCTTCTGCATGCCACGGAGTCACCTAGTGCAG | 3260 fluorescence intensity (a.u.) |
| CTTAACTTCCTCCCTCTCCCTTTATAAAACCCTAACCGCCCGGAGTCACCTAGTGCAG | 19500 fluorescence intensity (a.u.) |
| CTTTGATTTGATGCTTGTTTCGTGGCAGCTTACCACTGGACGGAGTCACCTAGTGCAG | 3420 fluorescence intensity (a.u.) |
| ATCGCAAACCTCAAGGATTCTTCTGGACTGAATTCAGAAGCGGAGTCACCTAGTGCAG | 3560 fluorescence intensity (a.u.) |
| CGACGAGCGGTAGCTCCGGCGTGCAAGCAAGCGGCGCTCACGGAGTCACCTAGTGCAG | 20800 fluorescence intensity (a.u.) |
| TTTCCAAAAGTATTTTAAAATCTGAAACTTTTAGCCACGTCGGAGTCACCTAGTGCAG | 3890 fluorescence intensity (a.u.) |
| GTGCTGCCAGTTCATGCCACCCGGCCAAGTGCAAGCATCGCGGAGTCACCTAGTGCAG | 3680 fluorescence intensity (a.u.) |
| TGTTGAGGTCGAGGGCTATGACACGGTCGTCGAGGTCGAGCGGAGTCACCTAGTGCAG | 3740 fluorescence intensity (a.u.) |
| GACACATGAGGGCCCACATGTCATACATTGTGAATGACACCGGAGTCACCTAGTGCAG | 3900 fluorescence intensity (a.u.) |
| TATATATGTGCCATGTGTGCGTCTGCTCGATTCGATTTGGCGGAGTCACCTAGTGCAG | 4110 fluorescence intensity (a.u.) |
| TGCCATGAAATATTAAACGAGGACATGTTCGGCTATGCCCCGGAGTCACCTAGTGCAG | 16800 fluorescence intensity (a.u.) |
| CGGTTGTTCCGTTACGTATGGGACACAACGTCAATAAGCTCGGAGTCACCTAGTGCAG | 3550 fluorescence intensity (a.u.) |
| ACCGACAGCTGACGTGCCAGGGTTCAAGTCTTCGTTTTGACGGAGTCACCTAGTGCAG | 5360 fluorescence intensity (a.u.) |
| AAATAGCCAAGCCATATCATCTCATCCATATCATAATCGGCGGAGTCACCTAGTGCAG | 3200 fluorescence intensity (a.u.) |
| CGCGCGCGCGTGACACGGCCACGCGCACCCAGCCGTCGCTCGGAGTCACCTAGTGCAG | 5680 fluorescence intensity (a.u.) |
| CCTTGGTTTCCGTGTCATGTTTGACCATTCGTCTTATTTGCGGAGTCACCTAGTGCAG | 4910 fluorescence intensity (a.u.) |
| ATCAAAAGGTAAGATTTTATGTTATAAGATCATGTTTAGTCGGAGTCACCTAGTGCAG | 12500 fluorescence intensity (a.u.) |
| AAAGTGTAAGTGTGGTAGATCAATGATCAATAATGTGATTCGGAGTCACCTAGTGCAG | 35000 fluorescence intensity (a.u.) |
| CAGGTGTGCAGTGCAGCAAATTATTCCGCGTTGGCACGGCCGGAGTCACCTAGTGCAG | 3720 fluorescence intensity (a.u.) |

| Sequence | binding signal |
| --- | --- |
| TGGAGTGAAAATAAAAGAAGCCAACTCGATCAATCGGCTACGGAGTCACCTAGTGCAG | 29500 fluorescence intensity (a.u.) |
| ATCGCGCGCGCGACGCGAGCTCCACGACGATGTCGCCGTACGGAGTCACCTAGTGCAG | 3770 fluorescence intensity (a.u.) |
| CCGTGGCTGGTGGGGCGGGTGAGTCACGCCCTCGGCGCTGCGGAGTCACCTAGTGCAG | 13000 fluorescence intensity (a.u.) |
| AAGTCAACAACGCCACGTAGGCGCCACGTGAGCCAAAATCCGGAGTCACCTAGTGCAG | 22400 fluorescence intensity (a.u.) |
| CTGCTTGTGCGTGTCAATGACTTCCACCAGTGGAATTTCCCGGAGTCACCTAGTGCAG | 4390 fluorescence intensity (a.u.) |
| TCTACGTAGCTGGGCCATGATGACGTAAGGCCTTCCTGCCCGGAGTCACCTAGTGCAG | 13900 fluorescence intensity (a.u.) |
| GGACCCACAATATTATTTTGTATGTGAATGTCAGATGGGTCGGAGTCACCTAGTGCAG | 3430 fluorescence intensity (a.u.) |
| AAATTGTAATCGACTGAGAGATGGTTCGCACGCGTGGAGTCGGAGTCACCTAGTGCAG | 3400 fluorescence intensity (a.u.) |
| CTCCGATGGAAGCCACGTCCTGTCCAATTCCCAAACTAACCGGAGTCACCTAGTGCAG | 4220 fluorescence intensity (a.u.) |
| CTAATTCGGCACCGGATGGCACGTCGGCGGTGAGCCAGACCGGAGTCACCTAGTGCAG | 5380 fluorescence intensity (a.u.) |
| CTCCTCGCCACCGTTCTCCGTCCATCCACCGAGTCACCGACGGAGTCACCTAGTGCAG | 3310 fluorescence intensity (a.u.) |
| TGACACGGACGCACGTCACAACGTCGTCACGTCGCCGCGCCGGAGTCACCTAGTGCAG | 9270 fluorescence intensity (a.u.) |
| CTGCCCTCTCGGCCAAGATGACGTAGCCATAACGCTTGGACGGAGTCACCTAGTGCAG | 6080 fluorescence intensity (a.u.) |
| CGTATGCGACGGCATACTGATTCCACTGTGTCATGTGCAACGGAGTCACCTAGTGCAG | 3320 fluorescence intensity (a.u.) |
| GACCTGTGCTTACAACATGTAAAGCCGCGGTGGTCTAGGACGGAGTCACCTAGTGCAG | 22500 fluorescence intensity (a.u.) |
| TAGCATTACTCATATTCATACAAAATGTTATTACTCCTTCCGGAGTCACCTAGTGCAG | 3390 fluorescence intensity (a.u.) |
| CATTTCATTTCCTCCCAAGAGTCAAGCTAGCCCTTCTTGCCGGAGTCACCTAGTGCAG | 3550 fluorescence intensity (a.u.) |
| GATAGCAGTTCAAGTTTAACTAAAGCTTCCCTAGGATTATCGGAGTCACCTAGTGCAG | 15300 fluorescence intensity (a.u.) |
| CATCTTCATCGGGAGAAACGCCACCTAAAATGTTACTCCCCGGAGTCACCTAGTGCAG | 3350 fluorescence intensity (a.u.) |
| TTTCAAGTCTCCTGCTGACATGGCACACTAATTAGGGAGACGGAGTCACCTAGTGCAG | 7970 fluorescence intensity (a.u.) |
| ACCACGTAAAATATCCAAACTGCCGTGTCCATCGTTTTCCCGGAGTCACCTAGTGCAG | 3160 fluorescence intensity (a.u.) |
| TCTTCGTTGCCCCTTGTTTTCACCATGTCACTGTTGAACACGGAGTCACCTAGTGCAG | 4060 fluorescence intensity (a.u.) |
| TATGGAATCTCCATCAACCACGTGCATCAACTCTAGCCTTCGGAGTCACCTAGTGCAG | 4110 fluorescence intensity (a.u.) |
| GCGTGAGCTTAGCAAAGAAATATCTCGTGGCACCTGTCACCGGAGTCACCTAGTGCAG | 3930 fluorescence intensity (a.u.) |
| TAAGATGGAGGAGGCGAGGAGAGTTGCGTAGGATGGAGTGCGGAGTCACCTAGTGCAG | 3880 fluorescence intensity (a.u.) |
| AATGCCTCAACAACTAGGGCAGCGTTCGTTCCAGTGAGTTCGGAGTCACCTAGTGCAG | 3180 fluorescence intensity (a.u.) |
| TTTCTTCACTACTTGCACGATGATGACGATGTGGAGCTAACGGAGTCACCTAGTGCAG | 3540 fluorescence intensity (a.u.) |

Given comma-delimited: entries from further up
Sequence,binding signal
CCGTGGCTGGTGGGGCGGGTGAGTCACGCCCTCGGCGCTGCGGAGTCACCTAGTGCAG,13000 fluorescence intensity (a.u.)
ACCACGTAAAATATCCAAACTGCCGTGTCCATCGTTTTCCCGGAGTCACCTAGTGCAG,3160 fluorescence intensity (a.u.)
